Assay results published in patent publication US8455616B2 (National Center for Global Health and Medicine, priority 2007, dated 2013).

Experiment: peptide synthesis
Conditions: whole synthesis, 220 nm

LR8DRIHF
crude HPLC purity: 100.0%
